Assay results reported in patent US7820700B2, “2-phenylpyridine derivative” (Astellas Pharma Inc., priority 2004, dated 2010).
Counter-ions that a name gives are not always drawn. Some results were stated once for a whole list of compounds, not compound by compound.

Experiments:
serum uric acid = assay: Serum uric acid-lowering action after oral administration; type: in vivo; conditions: ICR mice
[1] = test system: acetic acid-induced enteritis; assay: Acetic acid-induced enteritis-suppressing action; type: in vivo; conditions: 10 mg/kg oral once a day, dissection on fourth day, Wistar rat
[2] = after 24 hours from the administration, oral
[3] = after 2 hours from oral administration, 1 mg/kg

| SMILES | Uric acid-lowering ratio (serum uric acid; [2]) | Suppression of intestinal tissue weight increase [1] | Uric acid-lowering ratio (serum uric acid; [3]) |
| --- | --- | --- | --- |
| N#Cc1cc(-c2cc(C(=O)[O-])ccn2)ccc1NCC1CCCCC1.[Na+] [Example 6, sodium 2-{3-cyano-4-[(cyclohexylmethyl)amino]phenyl}isonicotinate] | ≥ 50% | – | – |
| CCCCN(C)c1ccc(-c2cc(C(=O)O)ccn2)cc1C#N [Example 57] | ≥ 50% | – | – |
| CC1CCN(c2ccc(-c3cc(C(=O)O)ccn3)cc2C#N)CC1 [Example 45] | – | ≥ 70% | – |
| CC1(C)CC(Oc2ccc(-c3cc(C(=O)O)ccn3)cc2C#N)CC(C)(C)C1 [Example 44] | ≥ 50% | – | ≥ 80% |
| N#Cc1cc(-c2cc(C(=O)O)ccn2)ccc1N1CCCCCC1 [Example 4, 2-(4-azepan-1-yl-3-cyanophenyl)isonicotinic acid monohydrochloride] | ≥ 50% | – | ≥ 80% |
